Results deposited as PubChem BioAssay AID1508597 (Cure First, 2020)
Assay: 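Knock-downs altering ovarian cancer cell survival with or without PARP inhibitor rucaparib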 (primary screen). Cell system: human ovarian carcinoma lines grown from tumours: OCI-P5x (papillary serous) and OCI-C5x (clear cell). Knock-down reagent: siRNA pool against human genes, 1.25 pmol siRNA per well. Duration: 72 h or 96 h, depending on the cell culture. Challenge: rucaparib 20 µM (about IC30) or vehicle, present until read-out. Rucaparib or vehicle: Rucaparib. Cell line: OCI-P5x (serous). Detection: 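ATP luminescence measured at 72 or 96 h according to the culture, then normalised and expressed as percent viability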. Reading the numbers: viability, normalised: higher = more viable cells remaining. Call rule: 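a well counts as a hit if its normalised viability is under 80 percent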. Meaning of the calls: active = viability under 80%; inactive = viability 80% or more.
This is a random part of the about 2,100 reagents, in one setting of the screen. 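Calls flag viability under 80% in either arm, not effects specific to rucaparib; the reference for percent is not stated.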 A number with no mark means an inactive call. The record does not give: the 100% reference.

MCCC1, technical replicate 1 | viability, normalised (%): 69.4 (active)
MCCC1, technical replicate 2 | viability, normalised (%): 77.1 (active)
MCCC1, technical replicate 3 | viability, normalised (%): 93.3
MAP3K19, technical replicate 1 | viability, normalised (%): 84.9
MAP3K19, technical replicate 2 | viability, normalised (%): 87.4
MAP3K19, technical replicate 3 | viability, normalised (%): 92.6
CNOT12, technical replicate 1 | viability, normalised (%): 49 (active)
CNOT12, technical replicate 2 | viability, normalised (%): 48.1 (active)
CNOT12, technical replicate 3 | viability, normalised (%): 42 (active)
SH3KBP1, technical replicate 1 | viability, normalised (%): 58.6 (active)
SH3KBP1, technical replicate 2 | viability, normalised (%): 83.6
SH3KBP1, technical replicate 3 | viability, normalised (%): 83.7

Records listed so far whose gene name starts with C or c:
CNOT12, technical replicate 1 | viability, normalised (%): 49 (active)
CNOT12, technical replicate 2 | viability, normalised (%): 48.1 (active)
CNOT12, technical replicate 3 | viability, normalised (%): 42 (active)
